In patent publication US20090082328A1, “Substituted phenylamino-benzene derivatives useful for treating hyper-proliferative disorders and diseases associated with mitogen extracellular kinase activity” (Bayer Schering Pharma Aktiengesellschaft, priority 2007, published 2009):
Some of these results come from one statement about several compounds together.

Amino acid sequences for entries named in this document (tags omitted).
UniProt Q02750, whole entry: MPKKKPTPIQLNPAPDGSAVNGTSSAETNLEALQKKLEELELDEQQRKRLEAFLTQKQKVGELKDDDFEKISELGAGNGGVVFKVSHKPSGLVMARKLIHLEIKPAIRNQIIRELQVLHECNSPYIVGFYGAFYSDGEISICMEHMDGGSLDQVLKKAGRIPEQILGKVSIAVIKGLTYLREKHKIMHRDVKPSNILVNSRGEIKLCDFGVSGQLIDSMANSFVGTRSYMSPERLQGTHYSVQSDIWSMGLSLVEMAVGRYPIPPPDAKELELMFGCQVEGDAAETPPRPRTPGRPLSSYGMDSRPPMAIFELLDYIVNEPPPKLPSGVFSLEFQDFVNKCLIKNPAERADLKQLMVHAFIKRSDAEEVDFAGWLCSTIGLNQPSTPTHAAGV

target: MEK (Homo sapiens, UniProt Q02750); test: MEK Biochemical Assay: DELFIA; conditions: GST-MEK, His-Raf, biotinylated ERK1, ATP 100 μM

| Compound | IC50 [nM] |
| --- | --- |
| CC1(C)OCC(CCOc2cc(F)cc(Nc3ccc(I)cc3F)c2C(N)=O)O1 (stereo not drawn) [Example 4, 2-[2-(2,2-Dimethyl-1,3-dioxolan-4-yl)ethoxy]-4-fluoro-6-[(2-fluoro-4-iodophenyl)-amino]benzamide] | < 400 |
| CC1(C)OC[C@H](CCCOc2cc(F)cc(Nc3ccc(I)cc3F)c2C(N)=O)O1 [Example 10, 2-[(4S)-2,2-dimethyl-1,3-dioxolan-4-yl]propoxy-4-fluoro-6-[(2-fluoro-4-iodophenyl)amino]benzamide] | < 400 |
| NC(=O)c1c(Nc2ccc(I)cc2F)cc(F)cc1OCCC[C@H](O)CO [Example 13, 2-[(4S)-4,5-dihydroxypentyl]oxy-4-fluoro-6-[(2-fluoro-4-iodophenyl)amino]benzamide] | < 400 |
